Data reported in publication PMC7617541.
No constants are given. Whether binding was seen depends on the method and setting. In cells and extracts the contact can be indirect. Some binding calls cover weakened binding; strength is not graded here. Tags and fused reporters may be left off the sequences shown.

Chains of the proteins cited; added tags and fusions are not shown.
UniProt P11142: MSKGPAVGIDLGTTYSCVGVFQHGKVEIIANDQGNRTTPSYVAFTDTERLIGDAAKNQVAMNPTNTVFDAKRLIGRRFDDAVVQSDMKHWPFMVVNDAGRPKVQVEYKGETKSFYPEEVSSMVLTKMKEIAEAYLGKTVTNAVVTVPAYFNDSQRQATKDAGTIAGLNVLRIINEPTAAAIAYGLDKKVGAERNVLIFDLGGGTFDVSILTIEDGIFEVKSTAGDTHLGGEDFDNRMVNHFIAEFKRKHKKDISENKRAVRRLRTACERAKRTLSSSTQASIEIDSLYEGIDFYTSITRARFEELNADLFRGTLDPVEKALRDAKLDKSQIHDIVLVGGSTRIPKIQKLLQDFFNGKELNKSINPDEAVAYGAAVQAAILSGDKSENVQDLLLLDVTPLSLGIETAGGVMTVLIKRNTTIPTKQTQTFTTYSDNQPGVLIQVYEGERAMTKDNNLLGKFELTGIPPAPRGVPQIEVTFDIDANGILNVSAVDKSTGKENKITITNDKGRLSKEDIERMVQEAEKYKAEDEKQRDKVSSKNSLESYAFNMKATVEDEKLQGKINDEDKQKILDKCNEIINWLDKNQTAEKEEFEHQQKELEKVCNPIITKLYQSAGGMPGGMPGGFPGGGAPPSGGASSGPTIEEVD

Target: T1, ST13-1xFLAG (recombinant wild-type human St13) (human) (UniProt P50502)
T1 sequence: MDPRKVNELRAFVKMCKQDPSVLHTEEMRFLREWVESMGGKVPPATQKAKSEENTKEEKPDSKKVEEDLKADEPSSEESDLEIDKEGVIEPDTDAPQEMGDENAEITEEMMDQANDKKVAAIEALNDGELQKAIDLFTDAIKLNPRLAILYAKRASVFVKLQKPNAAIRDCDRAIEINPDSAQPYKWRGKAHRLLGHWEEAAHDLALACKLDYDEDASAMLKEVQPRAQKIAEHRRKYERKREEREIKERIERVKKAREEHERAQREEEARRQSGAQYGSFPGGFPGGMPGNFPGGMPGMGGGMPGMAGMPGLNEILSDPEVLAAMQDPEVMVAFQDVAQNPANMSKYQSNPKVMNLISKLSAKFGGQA
Assay: co-IP; FLAG-tagged St13 variants purified from lysates of transfected ∆ST13 HEK293 cells on FLAG-M2 resin (physiological or high salt), eluted with FLAG peptide, SDS-PAGE

binding	Substance
binds	Hsc70 (endogenous, HEK293 cells) (from UniProt P11142 1-646)
binds	Stip1 (endogenous, HEK293 cells) (from UniProt P31948 1-543)
